Laboratory results taken from patent US7544664B2, “Sequences facilitating penetration of a substance of interest” (priority 2003, dated 2009).
Converted amounts (≈) assume the structure as drawn.

Legend:
Test in all cases: In vitro antifungal activity MIC80 (NCCLS M27A)
Conditions in all cases: MIC80, 48 hours, 37° C.; DPV15-AmB and AmB in μg/ml of AmB active product
[1] = tested on: Cryptococcus neoformans (NIH 52D)
[2] = tested on: Aspergillus fumigatus (IP 2001/183.02)
[3] = tested on: Candida albicans (ATCC 90028)

For C[C@@H]1[C@H](O)[C@@H](C)/C=C/C=C/C=C/C=C/C=C/C=C/C=C/[C@H](O[C@@H]2O[C@H](C)[C@@H](O)[C@H](N)[C@@H]2O)C[C@@H]2O[C@](O)(C[C@@H](O)C[C@@H](O)[C@H](O)CC[C@@H](O)C[C@@H](O)CC(=O)O[C@H]1C)C[C@H](O)[C@H]2C(=O)O [AmB, Amphotericin B], the MIC [1] was 0.06 µg/mL (≈ 0.0649 µM), the MIC [2] was 1 µg/mL (≈ 1.08 µM) and the MIC [3] was 0.5 µg/mL (≈ 0.541 µM).
